Reference: the supplement of paper PMC10849652
This is one part of the list.

The chains behind the UniProt entries cited, without tags or fusion partners. Where a name states a change or a piece, a line headed by the entry shows the natural chain unless it says otherwise.
UniProt O00303, whole entry, looked up: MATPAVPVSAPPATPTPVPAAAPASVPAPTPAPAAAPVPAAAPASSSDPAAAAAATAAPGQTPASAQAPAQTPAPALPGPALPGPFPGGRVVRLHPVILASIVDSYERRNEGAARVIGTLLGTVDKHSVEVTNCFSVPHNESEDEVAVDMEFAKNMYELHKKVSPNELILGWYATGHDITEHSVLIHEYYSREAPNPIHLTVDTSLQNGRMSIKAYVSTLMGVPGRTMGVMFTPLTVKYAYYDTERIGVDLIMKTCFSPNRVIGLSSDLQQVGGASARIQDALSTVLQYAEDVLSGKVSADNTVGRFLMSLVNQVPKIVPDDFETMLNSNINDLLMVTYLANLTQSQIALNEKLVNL
UniProt Q9P0I2: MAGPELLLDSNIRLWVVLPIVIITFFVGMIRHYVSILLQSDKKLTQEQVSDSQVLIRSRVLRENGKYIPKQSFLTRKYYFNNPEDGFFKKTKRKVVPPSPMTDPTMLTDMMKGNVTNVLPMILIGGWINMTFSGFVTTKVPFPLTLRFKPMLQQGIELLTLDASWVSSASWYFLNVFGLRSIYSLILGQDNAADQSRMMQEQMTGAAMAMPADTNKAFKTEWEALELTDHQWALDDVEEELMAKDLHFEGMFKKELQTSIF
UniProt Q92556, whole entry, looked up: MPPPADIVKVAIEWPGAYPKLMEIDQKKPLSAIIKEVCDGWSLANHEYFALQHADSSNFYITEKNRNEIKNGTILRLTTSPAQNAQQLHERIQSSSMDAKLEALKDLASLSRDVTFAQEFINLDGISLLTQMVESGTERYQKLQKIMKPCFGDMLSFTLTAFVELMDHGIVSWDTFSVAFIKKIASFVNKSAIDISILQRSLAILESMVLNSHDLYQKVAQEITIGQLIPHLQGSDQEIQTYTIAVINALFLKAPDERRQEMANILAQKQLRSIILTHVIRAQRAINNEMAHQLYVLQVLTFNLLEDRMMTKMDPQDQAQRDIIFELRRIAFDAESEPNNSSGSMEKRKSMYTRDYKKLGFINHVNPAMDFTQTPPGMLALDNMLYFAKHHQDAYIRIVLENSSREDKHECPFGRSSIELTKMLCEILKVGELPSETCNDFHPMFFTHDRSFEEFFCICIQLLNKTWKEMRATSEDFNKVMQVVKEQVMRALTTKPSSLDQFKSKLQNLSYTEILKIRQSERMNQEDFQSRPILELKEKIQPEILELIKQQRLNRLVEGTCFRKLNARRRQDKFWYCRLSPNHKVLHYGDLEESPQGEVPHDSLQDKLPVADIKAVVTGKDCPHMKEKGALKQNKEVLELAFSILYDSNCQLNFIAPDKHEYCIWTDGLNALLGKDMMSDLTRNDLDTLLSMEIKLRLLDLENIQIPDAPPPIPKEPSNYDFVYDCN
UniProt P55884, whole entry, looked up: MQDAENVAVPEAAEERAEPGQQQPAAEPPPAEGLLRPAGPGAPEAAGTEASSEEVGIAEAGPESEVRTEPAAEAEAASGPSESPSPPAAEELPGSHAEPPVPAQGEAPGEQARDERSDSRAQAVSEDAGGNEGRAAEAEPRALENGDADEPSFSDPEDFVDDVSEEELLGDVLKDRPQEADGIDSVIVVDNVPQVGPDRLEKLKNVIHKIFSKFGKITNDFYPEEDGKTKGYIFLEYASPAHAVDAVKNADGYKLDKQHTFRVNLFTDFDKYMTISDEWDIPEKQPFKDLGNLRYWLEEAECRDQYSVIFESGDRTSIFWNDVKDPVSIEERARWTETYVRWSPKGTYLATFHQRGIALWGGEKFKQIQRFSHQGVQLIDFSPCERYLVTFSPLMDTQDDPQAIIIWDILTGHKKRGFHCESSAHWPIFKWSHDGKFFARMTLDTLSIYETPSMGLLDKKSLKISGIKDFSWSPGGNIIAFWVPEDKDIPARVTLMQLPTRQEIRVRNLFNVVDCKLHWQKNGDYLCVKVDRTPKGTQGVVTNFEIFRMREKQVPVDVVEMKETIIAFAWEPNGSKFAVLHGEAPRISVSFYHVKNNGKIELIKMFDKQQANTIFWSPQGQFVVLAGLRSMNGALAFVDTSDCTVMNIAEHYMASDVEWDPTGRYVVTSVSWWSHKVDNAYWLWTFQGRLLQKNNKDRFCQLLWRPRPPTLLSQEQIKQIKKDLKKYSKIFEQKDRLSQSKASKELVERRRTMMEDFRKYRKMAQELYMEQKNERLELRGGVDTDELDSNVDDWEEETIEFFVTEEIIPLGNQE
UniProt Q8IV48: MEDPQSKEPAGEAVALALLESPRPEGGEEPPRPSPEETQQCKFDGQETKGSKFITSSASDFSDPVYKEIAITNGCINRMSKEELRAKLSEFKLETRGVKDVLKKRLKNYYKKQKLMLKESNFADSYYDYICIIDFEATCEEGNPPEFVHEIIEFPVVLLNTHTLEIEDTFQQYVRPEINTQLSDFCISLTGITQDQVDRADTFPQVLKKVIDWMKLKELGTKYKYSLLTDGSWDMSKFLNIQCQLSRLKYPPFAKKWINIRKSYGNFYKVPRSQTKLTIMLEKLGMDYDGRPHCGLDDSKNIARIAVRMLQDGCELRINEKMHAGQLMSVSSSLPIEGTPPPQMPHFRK
UniProt Q9NPA8: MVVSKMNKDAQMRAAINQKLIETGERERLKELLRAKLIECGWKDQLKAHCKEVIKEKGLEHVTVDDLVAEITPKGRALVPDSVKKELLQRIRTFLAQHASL
UniProt Q9NPA0: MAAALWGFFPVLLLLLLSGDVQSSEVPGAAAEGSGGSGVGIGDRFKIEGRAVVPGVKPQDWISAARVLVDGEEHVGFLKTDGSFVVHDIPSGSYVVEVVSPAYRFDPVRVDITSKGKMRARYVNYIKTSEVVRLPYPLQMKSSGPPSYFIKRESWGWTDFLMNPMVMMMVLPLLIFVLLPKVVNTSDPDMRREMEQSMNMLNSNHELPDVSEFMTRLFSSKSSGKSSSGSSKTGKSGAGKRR
UniProt P84090, whole entry, looked up: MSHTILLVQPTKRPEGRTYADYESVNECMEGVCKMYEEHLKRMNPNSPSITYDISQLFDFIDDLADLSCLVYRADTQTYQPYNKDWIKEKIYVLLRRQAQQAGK
UniProt P34913, whole entry, looked up: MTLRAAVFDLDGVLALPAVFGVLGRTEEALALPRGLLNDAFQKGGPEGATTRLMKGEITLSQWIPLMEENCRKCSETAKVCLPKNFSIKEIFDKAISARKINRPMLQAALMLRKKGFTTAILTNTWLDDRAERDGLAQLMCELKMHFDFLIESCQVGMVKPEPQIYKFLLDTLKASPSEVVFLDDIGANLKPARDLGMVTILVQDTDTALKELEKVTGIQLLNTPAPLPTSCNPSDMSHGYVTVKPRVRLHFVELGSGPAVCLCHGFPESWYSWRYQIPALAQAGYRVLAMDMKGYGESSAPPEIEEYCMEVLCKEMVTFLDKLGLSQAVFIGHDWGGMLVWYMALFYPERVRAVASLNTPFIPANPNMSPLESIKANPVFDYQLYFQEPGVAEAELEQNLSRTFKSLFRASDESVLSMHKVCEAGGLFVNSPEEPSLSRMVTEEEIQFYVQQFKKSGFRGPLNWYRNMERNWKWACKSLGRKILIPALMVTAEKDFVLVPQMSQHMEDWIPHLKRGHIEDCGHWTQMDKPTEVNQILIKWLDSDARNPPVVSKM
UniProt Q92889: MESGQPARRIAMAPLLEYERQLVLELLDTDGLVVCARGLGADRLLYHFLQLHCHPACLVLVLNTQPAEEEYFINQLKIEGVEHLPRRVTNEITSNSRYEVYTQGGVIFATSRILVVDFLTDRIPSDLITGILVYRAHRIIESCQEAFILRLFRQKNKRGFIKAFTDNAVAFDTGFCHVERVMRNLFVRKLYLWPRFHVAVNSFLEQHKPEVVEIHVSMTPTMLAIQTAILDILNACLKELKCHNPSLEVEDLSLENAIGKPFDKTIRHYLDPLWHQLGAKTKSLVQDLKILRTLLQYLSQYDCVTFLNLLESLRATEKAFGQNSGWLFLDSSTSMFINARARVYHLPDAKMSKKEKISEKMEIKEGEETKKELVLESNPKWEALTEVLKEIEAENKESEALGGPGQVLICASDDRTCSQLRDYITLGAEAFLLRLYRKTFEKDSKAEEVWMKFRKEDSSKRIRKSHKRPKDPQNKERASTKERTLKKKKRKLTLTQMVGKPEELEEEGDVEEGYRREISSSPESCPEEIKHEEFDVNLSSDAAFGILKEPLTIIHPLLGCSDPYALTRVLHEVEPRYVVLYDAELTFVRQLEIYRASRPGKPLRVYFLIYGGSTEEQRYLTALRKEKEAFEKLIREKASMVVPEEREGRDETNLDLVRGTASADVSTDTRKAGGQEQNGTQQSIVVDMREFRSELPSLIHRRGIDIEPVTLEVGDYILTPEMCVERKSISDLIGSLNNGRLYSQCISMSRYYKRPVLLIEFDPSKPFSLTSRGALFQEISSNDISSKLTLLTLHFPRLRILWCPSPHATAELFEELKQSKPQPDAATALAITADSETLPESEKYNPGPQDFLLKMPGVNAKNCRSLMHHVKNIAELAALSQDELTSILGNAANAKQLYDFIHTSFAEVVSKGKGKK
UniProt P54852: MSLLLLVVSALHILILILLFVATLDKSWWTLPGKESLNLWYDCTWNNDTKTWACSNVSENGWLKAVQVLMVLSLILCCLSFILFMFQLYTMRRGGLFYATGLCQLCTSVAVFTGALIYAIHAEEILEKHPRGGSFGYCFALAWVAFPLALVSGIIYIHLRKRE
UniProt Q6IA86: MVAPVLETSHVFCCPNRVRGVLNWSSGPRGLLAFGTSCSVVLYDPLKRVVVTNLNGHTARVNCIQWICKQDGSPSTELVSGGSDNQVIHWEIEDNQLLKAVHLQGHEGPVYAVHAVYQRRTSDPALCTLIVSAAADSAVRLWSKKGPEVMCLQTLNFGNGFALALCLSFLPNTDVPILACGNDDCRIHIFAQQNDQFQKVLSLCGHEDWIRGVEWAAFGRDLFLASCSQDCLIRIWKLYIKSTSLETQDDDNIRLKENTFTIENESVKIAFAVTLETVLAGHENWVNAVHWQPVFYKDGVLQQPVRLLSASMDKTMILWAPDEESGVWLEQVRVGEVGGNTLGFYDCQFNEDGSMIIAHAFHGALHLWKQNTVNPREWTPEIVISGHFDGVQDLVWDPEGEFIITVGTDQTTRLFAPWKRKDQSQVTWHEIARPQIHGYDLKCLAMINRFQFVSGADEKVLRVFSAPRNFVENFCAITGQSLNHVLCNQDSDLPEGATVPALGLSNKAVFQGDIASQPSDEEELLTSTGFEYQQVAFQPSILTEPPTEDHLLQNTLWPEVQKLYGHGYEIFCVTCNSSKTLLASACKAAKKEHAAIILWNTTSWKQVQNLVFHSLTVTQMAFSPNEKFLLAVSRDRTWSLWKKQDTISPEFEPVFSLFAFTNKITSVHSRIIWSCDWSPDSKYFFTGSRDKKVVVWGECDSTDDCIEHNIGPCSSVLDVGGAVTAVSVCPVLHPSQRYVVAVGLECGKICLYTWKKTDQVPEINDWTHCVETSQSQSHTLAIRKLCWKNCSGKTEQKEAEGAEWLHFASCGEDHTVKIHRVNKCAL
UniProt O14638, whole entry, looked up: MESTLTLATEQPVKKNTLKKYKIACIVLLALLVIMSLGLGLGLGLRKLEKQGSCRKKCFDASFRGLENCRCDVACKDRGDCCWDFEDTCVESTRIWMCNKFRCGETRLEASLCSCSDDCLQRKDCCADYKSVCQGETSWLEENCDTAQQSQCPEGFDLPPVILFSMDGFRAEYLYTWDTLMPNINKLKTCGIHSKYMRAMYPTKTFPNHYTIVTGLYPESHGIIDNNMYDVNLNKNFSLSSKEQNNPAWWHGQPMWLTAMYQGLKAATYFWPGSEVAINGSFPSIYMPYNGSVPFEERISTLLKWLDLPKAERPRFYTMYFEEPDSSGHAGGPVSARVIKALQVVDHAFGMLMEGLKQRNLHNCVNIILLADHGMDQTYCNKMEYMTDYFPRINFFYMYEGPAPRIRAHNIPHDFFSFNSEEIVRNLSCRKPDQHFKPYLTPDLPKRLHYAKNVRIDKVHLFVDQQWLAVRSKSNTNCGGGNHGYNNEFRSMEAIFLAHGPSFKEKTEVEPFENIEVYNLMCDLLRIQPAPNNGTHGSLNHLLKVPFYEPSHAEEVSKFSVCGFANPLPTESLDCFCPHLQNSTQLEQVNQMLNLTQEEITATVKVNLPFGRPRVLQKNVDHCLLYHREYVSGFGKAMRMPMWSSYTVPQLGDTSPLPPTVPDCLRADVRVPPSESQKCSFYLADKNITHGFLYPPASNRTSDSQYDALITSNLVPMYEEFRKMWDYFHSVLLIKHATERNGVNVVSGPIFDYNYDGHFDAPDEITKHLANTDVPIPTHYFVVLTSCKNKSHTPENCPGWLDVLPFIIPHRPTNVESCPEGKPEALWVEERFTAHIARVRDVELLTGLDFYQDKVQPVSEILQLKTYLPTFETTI
UniProt Q14249: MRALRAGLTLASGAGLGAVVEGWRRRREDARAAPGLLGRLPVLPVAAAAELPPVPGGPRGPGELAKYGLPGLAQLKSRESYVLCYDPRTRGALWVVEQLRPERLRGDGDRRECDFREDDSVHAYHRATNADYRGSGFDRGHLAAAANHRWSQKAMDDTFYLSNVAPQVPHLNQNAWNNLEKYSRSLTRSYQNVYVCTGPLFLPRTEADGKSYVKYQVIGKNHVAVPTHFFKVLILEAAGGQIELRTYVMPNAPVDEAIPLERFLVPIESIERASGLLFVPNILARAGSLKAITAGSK

Each target was assayed with COc1cc2ncnc(Nc3ccc(F)c(Cl)c3)c2cc1OCCCN1CCOCC1 [gefitinib] (assay: log2 fold change, soluble protein after heating vs DMSO (PISA); higher = thermal stabilisation; K562 lysate, 10 uM; active = over 0.2 and 3.5 SD of the protein, either way, in both replicates (recomputed)).
Method in brief: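 Dounce homogenisation of K562 pellets in PBS pH 7.4 with 1 mM MgCl2 produced a crude extract, used at 1 mg/mL protein. Exposure to 10 μM compound lasted 30 min, and aliquots were then heated for 3 min across 48°C-58°C, pooled and brought to 0.5% NP-40 at 4°C. The supernatant after 21,000xg for 90 min was quantified by TMTpro 16plex LC-MS/MS with channel sums equalised. Duplicate values are given as log-two fold change in thermal stability relative to solvent controls.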

log2 fold change, inactive:
EIF3G (UniProt K7ER90) 0.14
EP300 (UniProt Q09472) -0.054
ERGIC2 (UniProt Q96RQ1) -0.009
ERAL1 (UniProt O75616) 0.02
EIF3F (UniProt O00303) -0.084
EMC3 (UniProt Q9P0I2) -0.02
ELMO1 (UniProt Q92556) 0.271
ERC1 (UniProt X6RLX0) 0.031
EIF3B isoform 2 (UniProt P55884) -0.006
ERI1 (UniProt Q8IV48) -0.007
ENY2 (UniProt Q9NPA8) -0.016
EMC7 (UniProt Q9NPA0) -0.043
EMC6 (UniProt Q9BV81) -0.327
EIF2D (UniProt P41214) -0.031
EIF2S3 (UniProt P41091) -0.014
ELF2 (UniProt Q15723) 0.047
ERH (UniProt P84090) -0.085
EPHX2 (UniProt P34913) -0.002
EPS15L1 isoform 2 (UniProt Q9UBC2) 0.004
ERCC4 (UniProt Q92889) 0.044
ERCC3 (UniProt P19447) 0.039
EPPK1 (UniProt P58107) 0.01
EIF6 (UniProt P56537) -0.013
ENSA isoform 3 (UniProt O43768) 0.001
EMP3 (UniProt P54852) -0.071
EIF4E isoform 2 (UniProt P06730) -0.014
ENTPD5 (UniProt O75356) -0.008
EPRS (UniProt P07814) -0.032
EIF2B4 isoform 2 (UniProt Q9UI10) 0
EMC4 (UniProt Q5J8M3) -0.075
ELP2 isoform 6 (UniProt Q6IA86) -0.005
ENGASE (UniProt Q8NFI3) 0.018
ENPP3 (UniProt O14638) -0.037
ENDOG (UniProt Q14249) 0.038
EPN1 (UniProt Q9Y6I3) 0.03
EMD (UniProt P50402) 0.02

2 records picked at random from those above:
log2 fold change, inactive:
EMC3 (UniProt Q9P0I2) -0.02
ENTPD5 (UniProt O75356) -0.008
